In the experiment the target is T1, 5-HT1A (Rattus norvegicus, UniProt P19327).
T1 sequence (P19327 1-422): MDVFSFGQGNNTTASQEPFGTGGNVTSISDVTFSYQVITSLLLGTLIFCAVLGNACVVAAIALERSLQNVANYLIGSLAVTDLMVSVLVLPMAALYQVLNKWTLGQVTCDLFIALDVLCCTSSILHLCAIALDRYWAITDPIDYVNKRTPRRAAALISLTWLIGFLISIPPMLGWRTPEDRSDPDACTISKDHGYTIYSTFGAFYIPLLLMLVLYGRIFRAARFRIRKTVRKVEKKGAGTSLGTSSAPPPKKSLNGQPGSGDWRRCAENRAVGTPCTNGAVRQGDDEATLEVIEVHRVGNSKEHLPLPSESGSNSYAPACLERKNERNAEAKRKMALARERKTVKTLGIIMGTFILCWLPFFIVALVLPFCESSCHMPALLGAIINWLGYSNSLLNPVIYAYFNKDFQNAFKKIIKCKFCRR
In words: [35S]-GTPγS fixation test to coronal sections of rat brain. The experiment is classed as biochemical. Also on record: fixation test of [^35S]-GTPγS to coronal sections of rat brain; from tissue; host or cells: coronal sections of rat brain. Particulars: 10 μM. The protocol:
The in vitro agonist character of the new compounds was also evaluated in some cases by the fixation test of [^35S]-GTPγS to coronal sections of rat brain.

Regarding `O=C1C2CCCN2C(=O)N1CCCCNCC1CCc2ccccc2O1` (racemic) [Compound 1, (±)-2-[4-[(Chroman-2-yl)methylamine]butyl]-1,3-dioxoperhydropyrrolo[1,2-c]imidazol], the “[35S]-GTPγS fixation compared with 8-OH-DPAT” value is given as “especially similar to those obtained with the 5-HT1A, 8-OH-DPAT agonist prototype”.

Source of the values: patent US7351732B2, “Cycloalkanedione derivatives, method for the production thereof and their pharmacological applications” (Schwarz Pharma S.L., priority 2002, dated 2008).
